Data as given in patent US20170066829A1 (published 2017).
No constants are given. Whether binding was seen depends on the method and setting. Some results given as binding are weak or reduced against the parent protein; the word gives no strength.

Tests used:
[1] = target: human ERBB2 (ELISA antigen of FIG. 3, poly-histidine tagged) (human) (UniProt P04626); assay: ELISA, coated antigen, HRP-conjugated antibody, OD 450 nm
[2] = target: HER2 domains I+II (His-tagged, supernatant of transfected CHO cells) (UniProt P04626); assay: sandwich ELISA: antibody coated, domain construct supernatant, HRP anti-His-Tag detection

B1: Hersintuzumab (antibody, V domains shown)
VH: EVKLVESGGGLVKPGGSLRLSCATSGFSFSSYYMYWVRQAPGKRLEWVAYISSGSEIYYSDSVKGRFTISRDSAKNTLYLQMNSLRAEDTAVYYCARLGDDGMDVWGQGTTVTVSS
VL: DIVMTQSPSSLSASVGDRVTITCRASQNVRTAVAWFQQKPGKAPKALIYLASNRHTGVPDRFTGSGSGTEFTLTISNLQPEDFATYFCLQHNSYPLTFGGGTKVEIK
notes: also called humanized anti-HER2 antibody; humanized monoclonal anti-HER2 antibody
B1 was tested, and the binding [1] was “binds” and the binding [2] was “binds”.
